Measurements as given in article PMC6753678, “Fueling Open Innovation for Malaria Transmission-Blocking Drugs: Hundreds of Molecules Targeting Early Parasite Mosquito Stages” (Frontiers in Microbiology, 2019).

Test system: P. berghei ookinete development
[1] = unified cytotox / IC50, <10-fold red, >10-fold green

| Structure (SMILES) | Assay tox ratio Pb ODA | Assay tox ratio Pb ODA (red: <10-fold selectivity; green: >10-fold) | further results |
| --- | --- | --- | --- |
| CCN(CC)c1ccccc1CNC(=O)c1cc(Cl)c(N)cc1OC [TCMDC-131416] | 31.65 |  |  |
| CCOC(=O)c1c(-c2ccccc2)nc2c(sc3ccccc32)c1O [TCMDC-131540] | 76.29 |  |  |
| CC(ON1C(N)=NC(N)=NC1(C)C)c1ccccc1 (stereo not shown) [TCMDC-131596] |  |  | Assay tox ratio Pb ODA [1]: 0.00716 |
| Br.CC(CON1C(N)=NC(N)=NC1(C)C)c1ccc(Cl)cc1Cl (stereo not shown) [TCMDC-131687] |  |  | Assay tox ratio Pb ODA [1]: 0.000475 |
| CC1(C)N=C(N)N=C(N)N1OCCCc1ccccc1.Cl [TCMDC-131689] |  |  | Assay tox ratio Pb ODA [1]: 0.000393 |
| Br.CCC(ON1C(N)=NC(N)=NC1(C)C)c1ccc(Cl)cc1 (stereo not shown) [TCMDC-131709] |  | 0.00157 |  |
| CC1(C)NC(N)=NC(=N)N1OCOc1ccc(Cl)cc1.Cl [TCMDC-131734] |  | 0.03 |  |
| CC[C@H]1CN2CCc3cc(OC)c(OC)cc3[C@@H]2C[C@@H]1C[C@H]1NCCc2c1cc(OC)c(O)c2Cl [TCMDC-131802] |  | 16.86 |  |
| Br.CC[C@H]1CN2CCc3cc(OC)c(OC)cc3[C@@H]2C[C@@H]1C[C@H]1NCCc2c1cc(OC)c(O)c2I [TCMDC-131829] |  | 13.20 |  |
| CC[C@@]1(O)C(=O)OCc2c1cc1n(c2=O)Cc2c-1nc1cc3c(cc1c2CN1CCN(C)CC1)OCCO3.Cl [TCMDC-131875] | 0.53 |  |  |
| CC[C@@]1(O)C(=O)OCc2c1cc1n(c2=O)Cc2c-1nc1cc3c(cc1c2CN1CCOCC1)OCO3.O=C(O)C(F)(F)F [TCMDC-131876] | 0.37 |  |  |
| Nc1nc(N)c2c(ccc3c2cnn3Cc2cccnc2)n1 [TCMDC-131932] |  | 0.023 |  |
| COc1ccc(Cn2ncc3c4c(N)nc(N)nc4ccc32)cc1OC [TCMDC-131934] |  | 0.0014 |  |
| CCCCCCCc1cc(=O)c2ccccc2[nH]1 [TCMDC-132026] |  | 18.19 |  |
| Nc1c2ccccc2nc2ccc(Cl)cc12 [TCMDC-132029] | 9.24 |  |  |
| CCc1c(CCNCCCCCCNCCc2ccc([N+](=O)[O-])cc2)ccc(OC)c1OC.Cl [TCMDC-132066] | 0.83 |  |  |
| COc1ccc(C23Oc4cc(OC)cc(OC)c4C2(O)C2(CC3c3ccccc3)SCCCS2)cc1 (stereo not shown) [TCMDC-132098] | 249.66 |  |  |
| COc1ccc(-c2ccc([N+](=O)[O-])cc2C(=O)NCC(C)Oc2ccc(C(F)(F)F)cc2)cc1 (stereo not shown) [TCMDC-132304] | 24.94 |  |  |
| Cc1[nH]c(C)c(-c2ccc(-c3ccc(OCC(F)(F)F)cc3)nc2)c(=O)c1Cl [TCMDC-132306] |  |  | Assay tox ratio Pb ODA [1]: 80.43 |
| Cc1[nH]c(C)c(-c2ccc(-c3ccc(C(F)F)cc3)nc2)c(=O)c1Cl [TCMDC-132329] |  |  | Assay tox ratio Pb ODA [1]: 12.83 |
| Cc1noc(C)c1-c1cccc(CNCc2ccc(-c3cccc(-c4nc5cc(F)ccc5[nH]4)c3)cc2)c1.O=C(O)C(F)(F)F [TCMDC-133060] | 1.13 |  |  |
| Cc1noc(C)c1-c1cccc(CNCc2ccc(-c3ccc(-c4nc5cccc(C)c5[nH]4)cc3)cc2)c1.O=C(O)C(F)(F)F [TCMDC-133061] | 2.98 |  |  |
| Cc1cc(=O)c(-c2ccc(Oc3cccc(C(F)(F)F)c3)cc2)c(C)[nH]1 [TCMDC-133308] |  | 19.71 |  |
| COc1cc(-c2cc(-c3ccc(S(C)(=O)=O)cc3)cnc2N)ccc1O [TCMDC-133343] | 23.53 |  |  |
| COc1ccc(-c2cnc(N)c(-c3ccc(C(N)=O)cc3)c2)cc1OC [TCMDC-133349] | 234.49 |  |  |

| Structure (SMILES) | Assay tox ratio Pb ODA | Assay tox ratio Pb ODA (red: <10-fold selectivity; green: >10-fold) | further results |
| --- | --- | --- | --- |
| O=C(Nc1ccc(OC2CCN(Cc3ccc(F)cc3)CC2)c(Cl)c1)c1cccs1.O=C(O)C(F)(F)F [TCMDC-133746] |  | 33.41 |  |
| O=C(Nc1ccc(OC2CCN(Cc3ccc(F)cc3)C2)c(Cl)c1)c1cccs1.O=C(O)C(F)(F)F (stereo not shown) [TCMDC-133757] | 13.16 |  |  |
| O=C(Nc1ccc(OC2CCN(Cc3ccc(F)cc3)C2)c(Cl)c1)c1ccc(F)cc1.O=C(O)C(F)(F)F (stereo not shown) [TCMDC-133763] | 8.33 |  |  |
| CNC(=O)c1ccccc1Nc1nc(Nc2ccc(CCN3CCN(C)CC3)cc2)ncc1Cl.Cl [TCMDC-133800] |  | 0.98 |  |
| Cc1cccc2nc(-c3ccc(-c4ccc(CN5CC(C)OC(C)C5)cc4)cc3)[nH]c12.O=C(O)C(F)(F)F (stereo not shown) [TCMDC-133823] |  | 34.91 |  |
| Cc1cccc2nc(-c3ccc(-c4ccc(CN5CCOCC5)cc4)cc3)[nH]c12.O=C(O)C(F)(F)F [TCMDC-133825] |  | 43.40 |  |
| Cc1cccc2nc(-c3ccc(-c4ccc(CN5CCCC(O)C5)cc4)cc3)[nH]c12.O=C(O)C(F)(F)F (stereo not shown) [TCMDC-133826] |  | 1.39 |  |
| CC1CN(Cc2ccc(-c3ccc(-c4nc5ccccc5[nH]4)cc3)cc2)CC(C)O1.O=C(O)C(F)(F)F (stereo not shown) [TCMDC-133828] |  | 34.80 |  |
| CC1CN(Cc2ccc(-c3ccc(-c4nc5cc(F)ccc5[nH]4)cc3)cc2)CC(C)O1.O=C(O)C(F)(F)F (stereo not shown) [TCMDC-133831] |  | 20.81 |  |
| N#Cc1ccc(CN2CCC(Oc3ccc(NC(=O)c4cccs4)cc3Cl)CC2)cc1.O=C(O)C(F)(F)F [TCMDC-133955] |  | 8.33 |  |
| CC(C)CCN1CCC(Oc2ccc(NC(=O)c3cccs3)cc2Cl)CC1.O=C(O)C(F)(F)F [TCMDC-133974] |  | 14.77 |  |
| Cc1cc(Nc2ncc(C#N)c(Nc3ccccc3C(N)=O)n2)ccc1N1CCN(C)CC1.Cl [TCMDC-134115] |  |  | Assay tox ratio Pb ODA [1]: 102.50 |
| CN1CCN(c2ccc(Nc3ncc(C#N)c(Nc4ccccc4C(N)=O)n3)cc2)CC1.Cl [TCMDC-134116] |  | 76.73 |  |
| COc1ccc(Nc2ncc(C#N)c(Nc3ccccc3C(N)=O)n2)cc1N1CCN(C)CC1.Cl [TCMDC-134117] |  | 325.76 |  |
| CNC(=O)c1ccccc1Nc1nc(Nc2ccc(N3CCOCC3)cc2)ncc1Cl.Cl [TCMDC-134144] |  | 9.39 |  |
| COc1ccc(Nc2ncc(OC)c(Nc3ccccc3C(N)=O)n2)cc1N1CCN(C)CC1.O=CO [TCMDC-134149] |  | 50.00 |  |
| NCC(NC(=O)c1ccc(-c2c[nH]c3ncccc23)s1)c1ccccc1.O=CO (stereo not shown) [TCMDC-134154] | 16.83 |  |  |
| COc1ccc(Nc2ncc(Cl)c(Nc3cccnc3C(N)=O)n2)cc1N1CCN(C)CC1.Cl [TCMDC-134163] |  | 29.56 |  |
| CN1CCN(c2ccc(Nc3ncc(Cl)c(Nc4cccnc4C(N)=O)n3)cc2)CC1.Cl [TCMDC-134164] |  | 20.44 |  |
| CS(=O)(=O)Cc1cccc(Nc2ncc(Cl)c(Nc3cccnc3C(N)=O)n2)c1.Cl [TCMDC-134166] |  | 3.97 |  |
| NC(=O)c1ccccc1Nc1nc(Nc2cc[nH]n2)ncc1Cl [TCMDC-134169] |  | 25.69 |  |
| COc1cc(NC2=NS(=O)(=O)c3cc(Cl)ccc3N2C)cc(OC)c1OC.O=C(O)C(F)(F)F [TCMDC-134208] | 73.96 |  |  |
| CC(C#N)Cc1ccc(-c2cnc(N)c3cc(-c4ccnc(N)n4)ccc23)cc1 (stereo not shown) [TCMDC-134547] | 6.78 |  |  |
| COc1ccc2nccc(N3CCC(NCCNCc4ccc5c(n4)NC(=O)CO5)C3)c2n1.Cl (stereo not shown) [TCMDC-134548] | 26.25 |  |  |

Read-outs that look alike come from different tables or passages of the source.
